Assay results taken from PubChem BioAssay AID504444 (National Center for Advancing Translational Sciences (NCATS), 2011).
In all, about 360,000 compounds went through this assay and about 7,500 (2.1%) were called active. The shares of active, inactive and inconclusive entries below differ from those in the screen. Calls follow the shape of the dose curve; as a rule, active = well fitted inhibition curve with a large enough effect; inconclusive = small, poorly fitted or top-dose-only effect, or effect the other way; inactive = flat fitted curve, though single readings scatter. Where the call is inconclusive, the potency comes from a doubtful curve fit.

Test: Nrf2 qHTS screen for inhibitors; also: nearly all actives have a fitted effect of over 60% in size
Conditions: A549 ARE-Fluc reporter, luciferase luminescence, 18-24 h; activity change, negative = inhibition: at 46 µM (top of the series)
Procedure, shortened: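 Concentration-response testing used A549 ARE_Fluc cells at 5000 cells/well. Following an 18-24 h compound incubation, viability was read by fluorescence (Ex 405/Em 525) and luciferase output by luminescence.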
% is scaled to controls: 0 for no effect and ±100 for the full control effect; potency is read from the fitted curve at half-maximal effect.

| Compound | Potency | activity change, negative = inhibition |
| --- | --- | --- |
| COc1ccc(NC(=O)CC(NC(C)c2ccccc2)C(=O)O)cc1 (configuration not stated) | inconclusive: 0.651 µM [falling, partial curve, poor fit] |  |
| COc1ccccc1CCNC(=O)c1cccn1-c1nnc(N2CCCC2)s1 | inconclusive: 2.31 µM [activator, partial curve, poor fit] |  |
| Cc1cc(C)c(NC(=O)Cn2c(=O)oc3cc(S(=O)(=O)N4CCCCCC4)ccc32)c(C)c1 | inconclusive: 23.1 µM [falling, single point] |  |
| Cc1ccc(NC(=O)c2cc(C)no2)cc1 | inconclusive: 20.6 µM [activator, single point] |  |
| CCOC(=O)NC(Nc1ccc(C)cn1)(C(F)(F)F)C(F)(F)F | inconclusive: 10.3 µM [activator, partial curve, poor fit] |  |
| CN(C)/C=C1\N=C(c2cccnc2Oc2ccc(Cl)cc2)OC1=O | inconclusive: 29.1 µM [falling, single point] |  |
| CC(C)(C)c1ccc(C(=O)NCCNC(=O)c2ccco2)cc1 | inconclusive: 29.1 µM [activator, single point] |  |
| COc1ccc(N2CCN(C(=O)CN(c3ccc(Br)cc3)S(C)(=O)=O)CC2)cc1 | inconclusive: 0.146 µM [activator, full curve, poor fit] |  |
| CCN(Cc1ccccc1)C(=O)c1oc2ccc(S(=O)(=O)N3CCOCC3)cc2c1C | inconclusive: 25.9 µM [falling, single point] |  |
| CSc1ccc(CNc2ccc(C)c(C)c2)cc1 | inconclusive: 6.51 µM [activator, full curve] |  |
| Clc1ccc2nc(-c3ccc(Cl)nc3)[nH]c2c1 | inconclusive: 3.26 µM [activator, full curve, poor fit] |  |
| Cc1ccc(NC(=O)Cn2c(=O)n(-c3ccc(C)cc3)c(=O)c3c2cnn3C)cc1 |  | inactive: -2.26% [at 9.27 µM] |
| CCN(CCCNC(=O)COc1cc(=O)n(CC)c2ccccc12)Cc1ccccc1 | inactive |  |
| CCN(CC)C(=O)c1cc(-c2ccc(Br)cc2)on1 | inconclusive: 8.2 µM [activator, single point] |  |
| COC(=O)C1=C(C)N(Cc2ccccc2)C(=NCC(C)C)N[C@H]1c1cccc(C(F)(F)F)c1 | inactive |  |
| Cc1ccccc1OCCCN1CCOCC1 | inconclusive: 5.8 µM [activator, full curve] |  |
| Cn1ccsc1=NC(=O)c1ccc([N+](=O)[O-])o1 | inactive |  |
| COCC1CCCN(Cc2nc(-c3ccc4c(c3)OCO4)no2)C1 (configuration not stated) | inconclusive: 9.2 µM [activator, single point] |  |
| CC(C)(C)SCCNC(=O)/C=C/c1ccccc1 | inconclusive: 5.8 µM [activator, full curve] |  |
| Oc1cccnc1SCc1ccccc1 | inactive |  |
| COc1ccc(CCNC(=O)CCc2cn(Cc3ccccc3Cl)c3ccccc23)c(OC)c1 | inconclusive: 23.1 µM [falling, partial curve] |  |
| COc1ccccc1/C=N/NC1=NCCCCC1 | inconclusive: 4.11 µM [activator, partial curve, poor fit] |  |
| O=C(NCCSc1c[nH]c2ccccc12)c1ccc(Br)o1 | inactive |  |

| Compound | Potency | activity change, negative = inhibition |
| --- | --- | --- |
| O=C(NC1=NCCS1)c1ccc(Cl)c(S(=O)(=O)N2CCCCC2)c1 | inconclusive: 29.1 µM [falling, single point] |  |
| Cc1ccccc1NC(=O)Cn1cc(S(=O)(=O)c2ccccc2)c(=O)c2ccccc21 | inactive |  |
| COc1ccc(NC(=O)Cn2c(=O)n(-c3ccccc3)c(=O)c3sccc32)c(OC)c1 | inconclusive: 29.1 µM [falling, single point] |  |
| COc1ccc(NC(=O)c2cc3c(-c4ccccc4F)nn(C)c3s2)c(OC)c1 | inconclusive: 23.1 µM [falling, single point] |  |
| COCC(C)n1c(SCc2ccc(OC)c(F)c2)nc2ccccc2c1=O (configuration not stated) | active: 23.1 µM |  |
| CC1(C)CC(=O)C2=C(C1)NC(=S)C(C#N)C21CCCCC1 (configuration not stated) | inactive |  |
| FC(F)(F)c1cccc(N2CCN(c3ncnc4c3nc3n4CCCC3)CC2)c1 | active: 1.64 µM |  |
| CN(C)c1ccc(C(=O)OCC(=O)c2cccs2)cc1 | inconclusive: 1.64 µM [activator, partial curve] |  |
| O=C(Nc1ccccc1)c1cccc(S(=O)(=O)NC2CCCC2)c1 | inconclusive: 18.4 µM [falling, single point] |  |
| CCc1cccc(NS(=O)(=O)c2ccc3c(c2)NC(=O)CO3)c1 | inconclusive: 29.1 µM [falling, single point] |  |
| CN1CCN(c2ccc(NC(=O)c3ccc(C(F)(F)F)cc3)cn2)CC1 | inconclusive: 13 µM [falling, single point] |  |
| CCCn1c2ccccc2c2cnn(CC(=O)NCCCN3CCCCC3CC)c(=O)c21 (configuration not stated) | inconclusive: 6.51 µM [activator, full curve] |  |
| COc1ccccc1-c1nnc2sc(COc3ccc(Cl)cc3)nn12 | inconclusive: 25.9 µM [falling, single point] |  |
| N#Cc1ccccc1OCC(=O)N1CCN(S(=O)(=O)c2ccc(Cl)cc2)CC1 | inconclusive: 32.6 µM [falling, single point] |  |
| CC1(C)Oc2ccc3ccc(=O)oc3c2-c2cn[nH]c21 | inconclusive: 4.61 µM [falling, partial curve, poor fit] |  |
| O=C(OCC(=O)N1CCc2ccccc2C1)c1cc(=O)[nH]c2ccccc12 | inconclusive: 9.2 µM [activator, partial curve] |  |
| O=C(Nc1nc(-c2cccnc2)cs1)c1ccc(S(=O)(=O)N2CCOCC2)cc1 | inconclusive: 0.164 µM [falling, full curve] |  |
| CCOc1ccc(C2C(C(=O)Nc3ccccc3)=C(C)Nc3nc(-c4ccccc4Cl)nn32)cc1OC (configuration not stated) | inconclusive: 16.4 µM [falling, single point] |  |
| Cc1ccc(-n2cc(CNCCn3nc(C)cc3C)c(-c3ccc(F)cc3)n2)cc1 | inconclusive: 23.1 µM [activator, partial curve, poor fit] |  |
| CCCn1cnc2cc(NCc3cccc(OC)c3)ccc21 | inactive |  |
| COc1cccc(Cn2nnc(C(=O)NCc3ccc(Cl)cc3Cl)c2N)c1 |  | inactive: 7.28% [at 9.27 µM] |
| CC(C)CCn1c(=O)c2c(nc3n2CCCN3Cc2ccccc2)n(C)c1=O | inconclusive: 29.1 µM [falling, single point] |  |
| CCOc1ccc(-n2c(SCc3nc(-c4ccc(C)cc4)no3)nnc2-c2ccncc2)cc1 | inconclusive: 18.4 µM [falling, partial curve] |  |

Exported in CSV form: part of the list above.
Compound,Potency,"activity change, negative = inhibition"
COCC(C)n1c(SCc2ccc(OC)c(F)c2)nc2ccccc2c1=O (configuration not stated),active: 23.1 µM,
CC1(C)Oc2ccc3ccc(=O)oc3c2-c2cn[nH]c21,"inconclusive: 4.61 µM [falling, partial curve, poor fit]",
O=C(Nc1nc(-c2cccnc2)cs1)c1ccc(S(=O)(=O)N2CCOCC2)cc1,"inconclusive: 0.164 µM [falling, full curve]",
CCCn1cnc2cc(NCc3cccc(OC)c3)ccc21,inactive,

Next part

| Compound | Potency | activity change, negative = inhibition |
| --- | --- | --- |
| COc1cc(CNn2cn[nH]c2=S)cc(Br)c1OCc1ccccc1F | inactive |  |
| COc1cccc(OC)c1/C=C/C(=O)NC1CCCCC1 | inconclusive: 0.58 µM [falling, full curve] |  |
| COc1ccccc1-n1cnnc1SCC(=O)c1cc(C)n(Cc2cccs2)c1C | inconclusive: 3.66 µM [activator, partial curve, poor fit] |  |
| COCCNC(=O)c1cc(-c2ccc(-c3ccccc3)cc2)nc2ccccc12 | inconclusive: 4.11 µM [activator, partial curve, poor fit] |  |
| Nc1cccc(S(=O)(=O)N2CCN(S(=O)(=O)c3c(F)cccc3F)CC2)c1 | inactive |  |
| COc1ccc2c(c1)c1c(c(=O)n(-c3ccc(OC)c(OC)c3)c(=O)n1Cc1ccc(F)cc1)n2C | inactive |  |
| Cc1ccc(S(=O)(=O)N2[C@@H](c3cccc(Cl)c3)C(C(=O)O)=CC[C@H]2c2ccc3c(c2)OCO3)cc1 | inconclusive: 29.1 µM [falling, single point] |  |
| CCOC(=O)C1CCCN(c2c(C(=O)c3ccccc3)cnc3ccc(F)cc23)C1 (configuration not stated) | inactive |  |
| COC(=O)c1c(-c2ccc(OC)cc2)sc2cc3c(cc12)OCO3 | inconclusive: 9.2 µM [activator, partial curve] |  |
| O=C(c1snnc1-c1ccccc1)N1CCOCC1 | inconclusive: 4.61 µM [falling, partial curve, poor fit] |  |
| Cc1cc(NS(=O)(=O)c2ccc(NC(=O)Nc3cccc(C(F)(F)F)c3)cc2)no1 | inactive |  |
| Cc1cc(C)c(NC(=O)CN2CCCCCC2)c(C)c1 | inconclusive: 32.6 µM [activator, partial curve, poor fit] |  |
| CCCN(Cc1cc2cc(C)ccc2[nH]c1=O)C(=O)c1cccc([N+](=O)[O-])c1 | inconclusive: 11.6 µM [falling, partial curve] |  |
| CCCCCCn1cnc2c(oc3nc4c(cc32)CCCC4)c1=O | inconclusive: 0.0231 µM [falling, full curve, poor fit] |  |
| COc1ccc(N2C(=O)CSC23C(=O)N2c4c(cccc43)C(C)=CC2(C)C)cc1 (configuration not stated) | inconclusive: 32.6 µM [falling, single point] |  |
| Cc1ccc(C)c(N2CCN(C(=O)CCc3nc(-c4ccc(Br)cc4)no3)CC2)c1 | inconclusive: 11.6 µM [activator, partial curve, poor fit] |  |
| CCn1nccc1C(=O)Nc1ccc(C)c(C)c1 | inconclusive: 9.2 µM [activator, partial curve, poor fit] |  |
| CCN(CC)c1ccc(/C=N/n2c(-c3ccccc3Br)n[nH]c2=S)cc1 | inconclusive: 29.1 µM [falling, single point] |  |
| COc1cccc(C(=O)CC2(O)C(=O)N(Cc3ccccc3)c3ccccc32)c1 (configuration not stated) | inactive |  |
| CCN(CC(=O)Nc1c(F)cccc1F)C(=O)c1ccc(N2CCCCC2)c([N+](=O)[O-])c1 | active: 16.4 µM |  |
| N/C(=N\OC(=O)c1ccc(Br)o1)c1cccnc1 | inconclusive: 8.2 µM [activator, single point] |  |
